log2 fold change data for 40 targets are collected here from the supplement of paper PMC10849652.

Amino acid sequences for entries named in this document (tags omitted). A change or cut given only in a name is not applied to a line headed by its entry.
UniProt O60869: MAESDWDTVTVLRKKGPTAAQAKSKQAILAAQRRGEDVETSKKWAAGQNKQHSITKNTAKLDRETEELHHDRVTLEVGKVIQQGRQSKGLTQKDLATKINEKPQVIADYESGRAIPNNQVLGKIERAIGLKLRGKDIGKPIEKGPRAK
UniProt Q14919: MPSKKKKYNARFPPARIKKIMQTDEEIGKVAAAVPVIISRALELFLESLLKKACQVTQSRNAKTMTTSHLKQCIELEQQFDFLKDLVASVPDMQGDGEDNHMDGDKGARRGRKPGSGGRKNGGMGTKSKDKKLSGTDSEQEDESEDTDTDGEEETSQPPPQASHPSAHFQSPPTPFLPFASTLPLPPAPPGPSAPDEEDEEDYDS
UniProt O95620: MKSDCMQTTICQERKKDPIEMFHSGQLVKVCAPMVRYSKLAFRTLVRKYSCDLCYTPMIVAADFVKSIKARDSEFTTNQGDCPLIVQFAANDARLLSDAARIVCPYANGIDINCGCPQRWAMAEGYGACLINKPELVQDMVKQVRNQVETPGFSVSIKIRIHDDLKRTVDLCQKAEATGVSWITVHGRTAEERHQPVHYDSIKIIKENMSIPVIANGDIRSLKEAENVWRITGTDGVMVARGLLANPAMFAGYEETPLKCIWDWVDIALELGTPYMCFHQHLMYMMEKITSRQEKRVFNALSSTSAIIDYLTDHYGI
UniProt O43324: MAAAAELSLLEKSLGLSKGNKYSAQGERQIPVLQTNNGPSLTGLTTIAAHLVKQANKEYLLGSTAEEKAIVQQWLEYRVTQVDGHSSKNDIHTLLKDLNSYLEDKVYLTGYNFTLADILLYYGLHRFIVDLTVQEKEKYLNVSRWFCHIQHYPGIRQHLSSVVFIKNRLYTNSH
UniProt Q7RTS9: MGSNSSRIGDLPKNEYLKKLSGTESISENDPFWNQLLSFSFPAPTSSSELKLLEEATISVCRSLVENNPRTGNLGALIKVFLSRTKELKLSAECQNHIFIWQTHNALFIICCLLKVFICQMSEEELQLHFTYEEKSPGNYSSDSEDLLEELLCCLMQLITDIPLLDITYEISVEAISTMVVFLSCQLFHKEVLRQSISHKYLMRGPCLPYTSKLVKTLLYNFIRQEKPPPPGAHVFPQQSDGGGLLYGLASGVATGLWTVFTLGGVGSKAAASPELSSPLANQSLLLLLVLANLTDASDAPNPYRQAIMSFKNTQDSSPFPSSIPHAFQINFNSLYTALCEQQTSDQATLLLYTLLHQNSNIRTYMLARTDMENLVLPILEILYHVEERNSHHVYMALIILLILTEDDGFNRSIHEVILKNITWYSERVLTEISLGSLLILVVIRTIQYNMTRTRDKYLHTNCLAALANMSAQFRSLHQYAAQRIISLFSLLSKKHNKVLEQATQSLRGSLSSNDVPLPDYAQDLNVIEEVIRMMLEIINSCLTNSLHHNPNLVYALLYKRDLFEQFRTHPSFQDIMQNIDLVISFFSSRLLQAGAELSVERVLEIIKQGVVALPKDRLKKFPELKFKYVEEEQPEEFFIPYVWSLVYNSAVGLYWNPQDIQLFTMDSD
UniProt Q92611: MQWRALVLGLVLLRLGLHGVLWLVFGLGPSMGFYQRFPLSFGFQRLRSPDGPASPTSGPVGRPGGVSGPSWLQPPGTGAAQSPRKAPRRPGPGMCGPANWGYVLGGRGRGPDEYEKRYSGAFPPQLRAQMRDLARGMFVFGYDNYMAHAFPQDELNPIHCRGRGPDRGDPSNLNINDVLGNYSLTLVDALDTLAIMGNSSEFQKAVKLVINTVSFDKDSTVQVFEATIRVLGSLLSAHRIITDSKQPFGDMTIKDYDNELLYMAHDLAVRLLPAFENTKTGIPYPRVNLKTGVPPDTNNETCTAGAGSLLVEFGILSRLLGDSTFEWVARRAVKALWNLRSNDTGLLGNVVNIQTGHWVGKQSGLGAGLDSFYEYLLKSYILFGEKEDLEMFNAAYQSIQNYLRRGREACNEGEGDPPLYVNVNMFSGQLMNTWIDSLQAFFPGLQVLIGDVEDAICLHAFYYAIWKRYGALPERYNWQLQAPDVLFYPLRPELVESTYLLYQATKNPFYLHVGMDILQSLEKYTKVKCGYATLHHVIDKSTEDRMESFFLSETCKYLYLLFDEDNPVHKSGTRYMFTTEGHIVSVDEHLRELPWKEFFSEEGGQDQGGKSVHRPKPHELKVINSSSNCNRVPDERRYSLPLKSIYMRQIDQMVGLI
UniProt Q96G46: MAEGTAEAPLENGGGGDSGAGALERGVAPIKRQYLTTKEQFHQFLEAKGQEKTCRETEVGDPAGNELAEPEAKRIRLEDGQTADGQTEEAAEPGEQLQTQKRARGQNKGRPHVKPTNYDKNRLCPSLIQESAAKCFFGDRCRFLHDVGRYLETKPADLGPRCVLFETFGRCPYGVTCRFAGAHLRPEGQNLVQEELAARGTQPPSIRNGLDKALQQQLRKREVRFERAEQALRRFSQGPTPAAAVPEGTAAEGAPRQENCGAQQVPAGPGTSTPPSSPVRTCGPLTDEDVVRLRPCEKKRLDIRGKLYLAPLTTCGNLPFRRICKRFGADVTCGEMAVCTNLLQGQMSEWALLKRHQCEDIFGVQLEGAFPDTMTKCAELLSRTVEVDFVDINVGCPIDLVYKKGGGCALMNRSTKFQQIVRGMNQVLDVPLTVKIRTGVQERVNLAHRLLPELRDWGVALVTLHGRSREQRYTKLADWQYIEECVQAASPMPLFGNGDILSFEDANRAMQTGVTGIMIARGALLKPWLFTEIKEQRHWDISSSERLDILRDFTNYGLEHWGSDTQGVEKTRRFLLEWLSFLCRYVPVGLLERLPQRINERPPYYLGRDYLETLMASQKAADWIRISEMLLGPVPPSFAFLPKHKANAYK
UniProt Q8NDI1: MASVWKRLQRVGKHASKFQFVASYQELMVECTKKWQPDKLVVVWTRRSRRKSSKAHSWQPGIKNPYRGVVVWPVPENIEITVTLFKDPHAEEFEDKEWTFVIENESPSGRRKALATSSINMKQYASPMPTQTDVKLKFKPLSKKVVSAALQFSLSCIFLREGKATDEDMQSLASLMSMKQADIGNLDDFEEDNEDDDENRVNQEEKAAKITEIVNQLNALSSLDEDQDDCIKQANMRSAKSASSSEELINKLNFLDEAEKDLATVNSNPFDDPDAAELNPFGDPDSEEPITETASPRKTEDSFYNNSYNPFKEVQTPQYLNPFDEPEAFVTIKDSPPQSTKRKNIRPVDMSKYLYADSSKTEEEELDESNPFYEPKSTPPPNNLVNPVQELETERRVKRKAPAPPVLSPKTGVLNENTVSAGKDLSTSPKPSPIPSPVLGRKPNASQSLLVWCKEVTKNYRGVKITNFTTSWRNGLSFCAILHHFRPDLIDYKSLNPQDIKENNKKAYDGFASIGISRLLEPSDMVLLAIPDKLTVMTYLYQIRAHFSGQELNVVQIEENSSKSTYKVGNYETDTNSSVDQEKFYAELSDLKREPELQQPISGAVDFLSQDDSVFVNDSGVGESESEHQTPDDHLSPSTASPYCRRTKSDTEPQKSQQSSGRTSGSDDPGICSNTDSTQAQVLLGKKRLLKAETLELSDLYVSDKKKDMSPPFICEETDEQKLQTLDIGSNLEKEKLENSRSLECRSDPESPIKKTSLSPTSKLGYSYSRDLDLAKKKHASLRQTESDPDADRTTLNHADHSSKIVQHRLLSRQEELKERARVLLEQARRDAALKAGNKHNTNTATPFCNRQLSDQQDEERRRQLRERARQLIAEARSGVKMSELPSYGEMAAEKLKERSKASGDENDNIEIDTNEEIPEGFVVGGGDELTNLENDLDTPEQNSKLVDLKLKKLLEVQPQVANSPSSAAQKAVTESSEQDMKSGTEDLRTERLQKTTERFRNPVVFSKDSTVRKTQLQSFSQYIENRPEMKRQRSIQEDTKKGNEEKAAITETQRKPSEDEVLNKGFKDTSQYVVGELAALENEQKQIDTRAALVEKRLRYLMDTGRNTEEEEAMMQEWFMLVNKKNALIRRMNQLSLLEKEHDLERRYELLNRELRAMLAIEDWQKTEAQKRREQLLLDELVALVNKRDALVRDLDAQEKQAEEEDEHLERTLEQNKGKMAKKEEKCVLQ
UniProt Q8WWZ3: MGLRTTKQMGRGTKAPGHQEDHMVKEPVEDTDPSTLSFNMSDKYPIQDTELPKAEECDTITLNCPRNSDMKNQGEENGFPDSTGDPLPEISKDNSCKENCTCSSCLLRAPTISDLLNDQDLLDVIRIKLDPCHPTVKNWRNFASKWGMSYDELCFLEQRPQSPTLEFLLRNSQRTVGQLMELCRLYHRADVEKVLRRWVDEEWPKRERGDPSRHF
UniProt Q9BTV6: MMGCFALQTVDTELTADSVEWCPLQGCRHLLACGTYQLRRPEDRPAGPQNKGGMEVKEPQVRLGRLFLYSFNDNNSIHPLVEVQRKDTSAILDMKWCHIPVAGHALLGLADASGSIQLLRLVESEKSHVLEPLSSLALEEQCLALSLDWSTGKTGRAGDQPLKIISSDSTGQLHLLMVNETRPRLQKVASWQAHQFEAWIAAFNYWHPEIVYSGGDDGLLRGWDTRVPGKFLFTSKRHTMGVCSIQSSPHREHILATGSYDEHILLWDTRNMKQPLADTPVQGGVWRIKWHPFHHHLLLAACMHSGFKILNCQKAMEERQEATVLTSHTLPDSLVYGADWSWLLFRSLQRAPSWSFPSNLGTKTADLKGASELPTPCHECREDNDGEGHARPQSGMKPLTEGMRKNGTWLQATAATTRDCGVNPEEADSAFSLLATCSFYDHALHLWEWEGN
UniProt Q13011: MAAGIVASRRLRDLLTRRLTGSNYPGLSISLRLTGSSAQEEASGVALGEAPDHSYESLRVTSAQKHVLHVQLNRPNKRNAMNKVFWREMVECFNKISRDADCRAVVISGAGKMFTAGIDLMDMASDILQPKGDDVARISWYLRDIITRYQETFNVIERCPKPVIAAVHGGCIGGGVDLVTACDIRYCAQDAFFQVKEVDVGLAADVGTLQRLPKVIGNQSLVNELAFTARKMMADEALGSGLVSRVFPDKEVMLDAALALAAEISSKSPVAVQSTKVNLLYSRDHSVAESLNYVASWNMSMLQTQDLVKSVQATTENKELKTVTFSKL
UniProt Q9NP97, whole entry, looked up: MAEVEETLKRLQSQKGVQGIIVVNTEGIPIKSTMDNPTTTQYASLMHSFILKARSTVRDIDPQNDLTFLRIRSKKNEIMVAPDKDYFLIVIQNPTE
UniProt Q86TI2: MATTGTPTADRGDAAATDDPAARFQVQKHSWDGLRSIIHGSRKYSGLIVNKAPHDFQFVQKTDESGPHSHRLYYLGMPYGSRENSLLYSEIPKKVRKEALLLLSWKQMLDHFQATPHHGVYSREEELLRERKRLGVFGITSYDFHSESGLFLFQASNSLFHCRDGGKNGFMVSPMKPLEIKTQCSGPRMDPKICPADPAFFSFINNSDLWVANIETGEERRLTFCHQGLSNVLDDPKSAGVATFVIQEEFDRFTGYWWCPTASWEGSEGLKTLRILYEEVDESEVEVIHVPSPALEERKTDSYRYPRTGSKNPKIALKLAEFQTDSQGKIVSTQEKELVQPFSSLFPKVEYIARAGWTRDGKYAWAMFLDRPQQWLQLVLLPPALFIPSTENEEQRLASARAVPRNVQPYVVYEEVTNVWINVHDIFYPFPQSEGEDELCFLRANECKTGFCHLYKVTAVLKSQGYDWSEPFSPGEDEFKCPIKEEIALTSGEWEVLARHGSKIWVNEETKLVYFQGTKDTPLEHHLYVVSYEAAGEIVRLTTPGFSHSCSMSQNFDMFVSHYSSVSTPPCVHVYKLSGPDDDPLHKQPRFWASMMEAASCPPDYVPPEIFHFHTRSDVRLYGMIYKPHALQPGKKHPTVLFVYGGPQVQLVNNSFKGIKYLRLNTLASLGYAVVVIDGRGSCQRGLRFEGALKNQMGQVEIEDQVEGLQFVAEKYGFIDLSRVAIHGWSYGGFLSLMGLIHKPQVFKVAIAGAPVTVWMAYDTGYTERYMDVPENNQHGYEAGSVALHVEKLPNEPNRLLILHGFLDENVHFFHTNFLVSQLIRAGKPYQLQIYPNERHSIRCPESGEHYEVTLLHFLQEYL
UniProt P29692: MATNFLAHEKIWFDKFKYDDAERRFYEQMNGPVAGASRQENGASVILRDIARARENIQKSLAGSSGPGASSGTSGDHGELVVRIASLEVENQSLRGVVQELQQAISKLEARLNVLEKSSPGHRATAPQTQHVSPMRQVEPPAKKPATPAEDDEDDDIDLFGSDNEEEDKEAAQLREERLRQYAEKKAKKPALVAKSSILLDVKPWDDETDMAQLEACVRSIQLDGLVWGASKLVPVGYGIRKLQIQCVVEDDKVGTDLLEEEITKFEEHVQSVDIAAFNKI
UniProt Q7L8W6: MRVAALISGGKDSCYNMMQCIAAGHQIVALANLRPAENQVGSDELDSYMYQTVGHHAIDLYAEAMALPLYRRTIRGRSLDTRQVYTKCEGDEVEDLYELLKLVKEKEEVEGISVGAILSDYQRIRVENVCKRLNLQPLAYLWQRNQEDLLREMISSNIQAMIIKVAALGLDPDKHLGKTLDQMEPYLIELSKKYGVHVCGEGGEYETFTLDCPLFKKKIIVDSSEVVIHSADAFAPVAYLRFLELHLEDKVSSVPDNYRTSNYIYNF

The list shows a part of the results.

Compound in this assay: CC1=CC=C(C=C1)SC2=C3C=C(SC3=CN=C2)C(=O)N
Briefly: log2 fold change, soluble protein after heating vs DMSO (PISA); higher = thermal stabilisation; K562 lysate, 10 uM; active = over 0.2 and 3.5 SD of the protein, either way, in both replicates (recomputed). In a few lines:
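Values give the log-two fold change in thermal stability against solvent controls, from duplicates. Crude K562 extract at 1 mg/mL protein, made by dounce homogenisation in PBS pH 7.4 with 1 mM MgCl2, was treated with 10 μM compound for 30 min. After 3 min heating across 48°C-58°C, aliquots were pooled, adjusted to 0.5% NP-40 at 4°C and centrifuged at 21,000xg for 90 min. The supernatant was measured by TMTpro 16plex LC-MS/MS with channel sums equalised.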
Consider EIF1B (UniProt O60739), for which the log2 fold change is inactive: -0.123.
As to EDF1 (UniProt O60869), the log2 fold change is inactive: -0.009.
As to DRAP1 isoform 2 (UniProt Q14919), the log2 fold change was inactive: 0.014.
For the target E2F4 (UniProt Q16254), the log2 fold change was inactive: -0.037.
EFHD2 (UniProt Q96C19): the log2 fold change was inactive: 0.008.
The result for DPP8 (UniProt Q6V1X1) reads inactive: 0.088.
The result for DSN1 (UniProt Q9H410) reads inactive: -0.011; that for DUS4L (UniProt O95620), inactive: -0.029; that for EEF1E1 (UniProt O43324), inactive: 0.02.
On to DYM (UniProt Q7RTS9), for which the log2 fold change is inactive: -0.065.
Turning to EFTUD2 (UniProt Q15029), the log2 fold change was inactive: 0.005.
For the target EIF2A (UniProt Q9BY44), the log2 fold change is inactive: 0.012.
On to EEF1AKMT2, A0A494BZY7, for which the log2 fold change was inactive: -0.064.
The result for DPY19L1, A0A1B0GW05 reads inactive: 0.022.
Take EDEM1 (UniProt Q92611): the log2 fold change is inactive: 0.01.
For the target DPYSL2 (UniProt Q16555), the log2 fold change was inactive: -0.002.
For the target DUS3L (UniProt Q96G46), the log2 fold change is inactive: -0.003.
Take DSCC1 (UniProt Q9BVC3): the log2 fold change is inactive: -0.145.
The result for EHBP1 isoform 2 (UniProt Q8NDI1) reads inactive: -0.02; that for EDARADD (UniProt Q8WWZ3), inactive: -0.035; that for EFHD1 (UniProt Q9BUP0), inactive: -0.023.
DTYMK (UniProt P23919): the log2 fold change is inactive: -0.002.
For the target DYNLL2 (UniProt Q96FJ2), the log2 fold change was inactive: 0.008.
The result for DPH7 (UniProt Q9BTV6) reads inactive: -0.009; that for ECH1 (UniProt Q13011), inactive: 0.013; that for DUSP23 (UniProt Q9BVJ7), inactive: 0.
Turning to DYNLRB1 (UniProt Q9NP97), the log2 fold change was inactive: 0.002.
The result for DPP9 isoform 2 (UniProt Q86TI2) reads inactive: 0.025; that for DPP7 (UniProt Q9UHL4), inactive: -0.011; that for EEF1D isoform 2 (UniProt P29692), inactive: -0.009.
The result for EEF1B2 (UniProt P24534) reads inactive: -0.007; that for DUT (UniProt P33316), inactive: -0.023.
As for EED, A0A5F9ZI63, the log2 fold change is inactive: -0.008.
As to DPH6 (UniProt Q7L8W6), the log2 fold change was inactive: -0.01.
ECT2 (UniProt Q9H8V3): the log2 fold change was inactive: -0.097.
As for DUSP3 (UniProt P51452), the log2 fold change was inactive: -0.009.
The result for DYNC1H1 (UniProt Q14204) reads inactive: 0.023; that for EIF1AD (UniProt Q8N9N8), inactive: 0.008; that for ECI2 (UniProt O75521), inactive: 0.
Turning to EBNA1BP2 (UniProt Q99848), the log2 fold change is inactive: 0.023.
